Holding throughout (assay): cell surface binding assay; transfected COS-7 cells incubated with 100 nM purified Fc-fusion protein in ECS (168 mM NaCl, 2.4 mM KCl, 20 mM HEPES pH 7.4, 10 mM D-glucose, 2 mM CaCl2, 1.3 mM MgCl2) with 100 μg/ml BSA, 1 h, room temperature; bound Fc immunostained with anti-human IgG and normalised to surface HA; only the binder purified
Test [1] concerns the target HA-NRX2αS1(+) S2(+) S3(+) S4(+) (extracellularly HA-tagged neurexin2α) (mouse) (UniProt E9Q7X7).
Test [2] has as its target HA-NRX1αS1(+) S2(+) S3(+) S4(+) (extracellularly HA-tagged neurexin1α) (UniProt Q9CS84).
Test [3] concerns the target pDisplay-NRX2α LNS1 (aa 29-199) (mouse) (UniProt E9Q7X7).

Protein sequences, listed by entry. Tags and fused reporters are not part of them. Lines headed by an entry give the natural chain unless they say otherwise; changes in a name come on top. Chains listed by the source or under a name are the forms on record and can include a tag or linker. Residues count along the entry.
UniProt E9Q7X7: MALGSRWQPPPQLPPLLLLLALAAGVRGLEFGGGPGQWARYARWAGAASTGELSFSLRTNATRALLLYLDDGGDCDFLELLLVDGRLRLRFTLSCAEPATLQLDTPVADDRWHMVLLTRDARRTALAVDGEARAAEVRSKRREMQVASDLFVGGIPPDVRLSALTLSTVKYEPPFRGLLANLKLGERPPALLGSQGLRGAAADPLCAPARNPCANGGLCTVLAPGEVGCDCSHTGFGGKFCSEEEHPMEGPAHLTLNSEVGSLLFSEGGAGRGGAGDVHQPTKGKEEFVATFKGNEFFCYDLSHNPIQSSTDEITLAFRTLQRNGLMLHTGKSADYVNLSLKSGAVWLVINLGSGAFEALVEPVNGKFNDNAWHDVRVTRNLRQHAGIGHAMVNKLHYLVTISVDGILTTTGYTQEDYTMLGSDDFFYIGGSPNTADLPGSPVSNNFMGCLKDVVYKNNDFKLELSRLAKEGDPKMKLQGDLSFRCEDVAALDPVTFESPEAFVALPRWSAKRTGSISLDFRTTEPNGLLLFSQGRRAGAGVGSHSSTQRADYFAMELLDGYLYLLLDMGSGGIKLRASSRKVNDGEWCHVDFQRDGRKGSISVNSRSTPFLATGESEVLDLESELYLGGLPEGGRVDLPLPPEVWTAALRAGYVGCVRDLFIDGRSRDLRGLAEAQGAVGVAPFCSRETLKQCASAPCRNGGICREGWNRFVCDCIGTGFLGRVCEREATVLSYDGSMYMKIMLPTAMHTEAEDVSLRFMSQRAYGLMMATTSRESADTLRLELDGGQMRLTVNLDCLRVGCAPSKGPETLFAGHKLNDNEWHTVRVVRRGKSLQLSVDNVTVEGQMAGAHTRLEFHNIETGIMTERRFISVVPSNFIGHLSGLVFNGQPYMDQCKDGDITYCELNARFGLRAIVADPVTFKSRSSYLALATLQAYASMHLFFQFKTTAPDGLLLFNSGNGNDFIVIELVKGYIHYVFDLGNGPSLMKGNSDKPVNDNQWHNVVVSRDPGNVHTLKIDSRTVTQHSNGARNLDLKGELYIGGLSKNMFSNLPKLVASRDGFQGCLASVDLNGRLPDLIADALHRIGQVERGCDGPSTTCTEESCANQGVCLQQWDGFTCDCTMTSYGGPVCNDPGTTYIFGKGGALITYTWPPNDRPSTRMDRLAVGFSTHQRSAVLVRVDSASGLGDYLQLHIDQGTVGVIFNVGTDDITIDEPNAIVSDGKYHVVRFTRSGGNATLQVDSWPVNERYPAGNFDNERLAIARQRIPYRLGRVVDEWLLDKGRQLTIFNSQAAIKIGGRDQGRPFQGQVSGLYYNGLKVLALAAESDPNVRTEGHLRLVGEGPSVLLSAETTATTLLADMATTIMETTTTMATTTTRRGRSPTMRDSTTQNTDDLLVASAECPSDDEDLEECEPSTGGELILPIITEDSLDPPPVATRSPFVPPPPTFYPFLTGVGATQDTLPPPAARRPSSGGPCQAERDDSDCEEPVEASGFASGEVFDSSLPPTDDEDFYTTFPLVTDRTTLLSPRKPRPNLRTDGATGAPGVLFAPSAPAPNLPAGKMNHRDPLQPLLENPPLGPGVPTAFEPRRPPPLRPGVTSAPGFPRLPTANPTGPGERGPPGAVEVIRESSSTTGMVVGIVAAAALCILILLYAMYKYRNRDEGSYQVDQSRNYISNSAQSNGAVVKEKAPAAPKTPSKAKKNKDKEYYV
HA-NRX2αS1(+) S2(+) S3(+) S4(+) (extracellularly HA-tagged neurexin2α): residues 29-1710 of E9Q7X7
pDisplay-NRX2α LNS1 (aa 29-199): residues 29-199 of E9Q7X7
UniProt Q9CS84, residues 31-1514: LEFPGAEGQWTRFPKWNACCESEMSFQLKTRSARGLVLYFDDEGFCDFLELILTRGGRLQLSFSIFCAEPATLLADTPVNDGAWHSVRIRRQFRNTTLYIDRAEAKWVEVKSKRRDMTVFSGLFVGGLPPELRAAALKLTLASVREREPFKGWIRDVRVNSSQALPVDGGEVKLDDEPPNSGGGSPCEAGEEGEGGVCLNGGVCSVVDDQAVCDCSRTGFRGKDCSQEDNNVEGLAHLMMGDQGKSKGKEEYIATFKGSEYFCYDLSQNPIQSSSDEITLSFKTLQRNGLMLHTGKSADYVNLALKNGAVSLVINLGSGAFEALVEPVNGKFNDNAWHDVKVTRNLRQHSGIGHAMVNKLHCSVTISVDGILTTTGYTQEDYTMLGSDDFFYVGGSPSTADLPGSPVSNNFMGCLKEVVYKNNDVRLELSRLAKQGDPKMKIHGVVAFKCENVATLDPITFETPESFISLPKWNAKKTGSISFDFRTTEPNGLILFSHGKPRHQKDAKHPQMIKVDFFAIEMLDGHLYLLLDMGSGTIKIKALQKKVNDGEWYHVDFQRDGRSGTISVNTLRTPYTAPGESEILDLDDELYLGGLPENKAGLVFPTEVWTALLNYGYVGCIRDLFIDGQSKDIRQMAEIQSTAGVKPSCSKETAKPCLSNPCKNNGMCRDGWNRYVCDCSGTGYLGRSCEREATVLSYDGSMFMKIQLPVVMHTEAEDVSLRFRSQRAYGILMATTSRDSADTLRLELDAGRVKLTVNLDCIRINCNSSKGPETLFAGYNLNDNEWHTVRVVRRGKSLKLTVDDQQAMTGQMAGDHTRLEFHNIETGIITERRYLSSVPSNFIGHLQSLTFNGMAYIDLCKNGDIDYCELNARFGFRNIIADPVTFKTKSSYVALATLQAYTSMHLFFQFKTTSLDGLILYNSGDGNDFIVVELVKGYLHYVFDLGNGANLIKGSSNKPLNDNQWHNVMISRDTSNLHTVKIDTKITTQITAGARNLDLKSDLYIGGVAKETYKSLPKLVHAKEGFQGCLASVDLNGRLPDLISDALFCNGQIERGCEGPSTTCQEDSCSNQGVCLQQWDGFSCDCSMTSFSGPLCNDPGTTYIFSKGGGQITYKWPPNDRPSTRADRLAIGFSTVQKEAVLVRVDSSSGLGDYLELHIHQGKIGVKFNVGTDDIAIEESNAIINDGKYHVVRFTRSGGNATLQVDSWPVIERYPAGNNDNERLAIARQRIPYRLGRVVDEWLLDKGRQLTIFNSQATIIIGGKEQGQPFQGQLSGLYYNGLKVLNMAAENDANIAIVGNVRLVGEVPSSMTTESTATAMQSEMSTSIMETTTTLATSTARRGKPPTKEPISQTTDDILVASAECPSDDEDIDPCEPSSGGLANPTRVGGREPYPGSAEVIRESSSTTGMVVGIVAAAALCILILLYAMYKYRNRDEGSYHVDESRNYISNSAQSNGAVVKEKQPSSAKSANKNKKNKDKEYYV
UniProt M0RAS4, residues 25-448: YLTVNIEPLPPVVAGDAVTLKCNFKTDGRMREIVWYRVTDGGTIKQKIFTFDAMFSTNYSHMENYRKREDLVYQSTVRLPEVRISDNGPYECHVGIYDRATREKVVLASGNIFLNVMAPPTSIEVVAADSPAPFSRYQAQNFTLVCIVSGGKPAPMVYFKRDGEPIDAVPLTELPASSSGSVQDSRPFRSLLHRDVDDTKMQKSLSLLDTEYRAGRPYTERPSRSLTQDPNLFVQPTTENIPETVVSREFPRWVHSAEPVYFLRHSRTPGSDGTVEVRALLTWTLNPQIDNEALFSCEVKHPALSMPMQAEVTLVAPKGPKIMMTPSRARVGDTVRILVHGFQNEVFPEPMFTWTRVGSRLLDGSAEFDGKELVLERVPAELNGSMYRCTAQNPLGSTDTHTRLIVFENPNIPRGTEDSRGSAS

Data on one substance can be found in PMC5581337.

These are yes or no findings as the source states them, for the method shown. Some entries that bind do so weakly or less than the wild type.

As to “IgSF21-Fc (ectodomain of rat IgSF21 fused to the human immunoglobulin Fc region) (from UniProt M0RAS4 25-448) (Fc fusion)”, the results for the binding entry in test [1], in test [2] and in test [3] were “binds”, “no binding (tested: 100 nM)” and “binds”, respectively.
